These are yes or no findings as the source states them, for the method shown. Binding seen in cells or lysates may run through a third protein. A result given as binding can be weak or reduced; the word gives no strength.
Molecular target: Zm-6&1-FEH1 C-terminally fused with nYFP (Zea mays) (UniProt B6U1H5)
Test: split reporter; split-YFP; cYFP and nYFP fusions co-expressed in N. benthamiana leaves for 48 h; YFP fluorescence of leaf epidermal cells read by confocal laser scanning microscopy

Zm-INVINH1 C-terminally fused with cYFP (from UniProt A0A1D6E1Q3)
binding: binds

Reference: PMC6696269
